{"source": "patent EP0034481A1", "about": "“2-Methyl-5-thiazole-methylamine and carboxamide derivatives” (Grigg, Ronald Ernest, priority 1980, dated 1981)", "assay": "Irwin Profile", "details": "in vivo", "note": "At least one structure is not confirmed: it was looked up by name or label, or the drawing left a doubt."}
{"compound": "Cc1nnc(C(=O)N2CCCCC2)o1", "note": "[Example 11, 2-methyl-5-(piperidinocarbonyl)oxadiazole]", "values": [{"measurement": "Irwin Profile", "result": "weakly active"}]}
